Results as given in publication doi:10.1101/2025.07.29.667382 (bioRxiv, 2025).
Numbering of substitutions follows the chain as printed. These are yes or no findings as the source states them, for the method shown. In cells and extracts the contact can be indirect. Some binding calls cover weakened binding; strength is not graded here. Sequences can lack the tags named with a protein.

T1: Vps35^yomCherry (wildtype) (yeast (strain BY4742)) (UniProt P34110)
T1 sequence: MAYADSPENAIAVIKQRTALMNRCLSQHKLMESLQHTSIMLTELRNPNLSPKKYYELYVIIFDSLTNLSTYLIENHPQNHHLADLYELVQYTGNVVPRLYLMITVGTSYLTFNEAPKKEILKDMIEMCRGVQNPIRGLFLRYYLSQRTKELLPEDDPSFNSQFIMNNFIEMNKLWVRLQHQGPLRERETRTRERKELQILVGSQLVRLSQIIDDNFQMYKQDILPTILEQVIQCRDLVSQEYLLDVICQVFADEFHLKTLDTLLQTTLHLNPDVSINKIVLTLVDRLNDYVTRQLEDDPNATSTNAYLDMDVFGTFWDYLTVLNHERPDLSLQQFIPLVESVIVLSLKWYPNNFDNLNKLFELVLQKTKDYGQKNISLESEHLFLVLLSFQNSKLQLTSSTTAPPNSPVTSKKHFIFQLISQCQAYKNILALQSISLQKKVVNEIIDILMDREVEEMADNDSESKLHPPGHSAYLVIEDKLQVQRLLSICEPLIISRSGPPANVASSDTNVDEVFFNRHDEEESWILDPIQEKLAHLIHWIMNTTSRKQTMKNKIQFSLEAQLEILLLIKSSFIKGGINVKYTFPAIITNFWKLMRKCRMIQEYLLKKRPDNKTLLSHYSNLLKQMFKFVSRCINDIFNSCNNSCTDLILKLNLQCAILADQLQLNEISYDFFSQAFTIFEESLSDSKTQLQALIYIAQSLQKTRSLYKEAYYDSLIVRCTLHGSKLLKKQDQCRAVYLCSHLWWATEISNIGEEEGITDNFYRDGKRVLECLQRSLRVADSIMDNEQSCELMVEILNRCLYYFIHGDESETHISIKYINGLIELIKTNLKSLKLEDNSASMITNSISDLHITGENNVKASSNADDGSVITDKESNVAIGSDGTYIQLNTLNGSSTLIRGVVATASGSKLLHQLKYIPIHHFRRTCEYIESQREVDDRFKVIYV

T2: Vps35^QGRE-yomCherry (yeast (strain BY4742)) (UniProt P34110)
T2 sequence: T1 sequence with Q181A, G182A, R185A, E186A

T3: Snx3^V5 (yeast (strain BY4742)) (UniProt Q08826)
T3 sequence: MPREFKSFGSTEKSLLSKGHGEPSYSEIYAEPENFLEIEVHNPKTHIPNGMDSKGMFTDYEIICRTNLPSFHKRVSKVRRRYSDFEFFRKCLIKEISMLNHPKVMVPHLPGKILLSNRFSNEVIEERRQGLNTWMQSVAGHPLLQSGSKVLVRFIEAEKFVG

B1: Snx3^V5 (protein, UniProt Q08826 1-162)
chain: T3 sequence
B2: Vps5^HA (protein, UniProt Q92331 1-675)
chain: MDYEDNLEAPVWDELNHEGDKTQSLVSNSIESIGQISTNEERKDNELLETTASFADKIDLDSAPEWKDPGLSVAGNPQLEEHDNSKADDLINSLAPEQDPIADLKNSTTQFIATRESGGALFTGNANSPLVFDDTIYDANTSPNTSKSISGRRSGKPRILFDSARAQRNSKRNHSLKAKRTTASDDTIKTPFTDPLKKAEKENEFVEEPLDDRNERRENNEGKFTASVEKNILEQVDRPLYNLPQTGANISSPAEVEENSEKFGKTKIGSKVPPTEKAVAFKVEVKDPVKVGELTSIHVEYTVISESSLLELKYAQVSRRYRDFRWLYRQLQNNHWGKVIPPPPEKQSVGSFKENFIENRRFQMESMLKKICQDPVLQKDKDFLLFLTSDDFSSESKKRAFLTGSGAINDSNDLSEVRISEIQLLGAEDAAEVLKNGGIDAESHKGFMSISFSSLPKYNEADEFFIEKKQKIDELEDNLKKLSKSLEMVDTSRNTLAASTEEFSSMVETLASLNVSEPNSELLNNFADVHKSIKSSLERSSLQETLTMGVMLDDYIRSLASVKAIFNQRSKLGYFLVVIENDMNKKHSQLGKLGQNIHSEKFREMRKEFQTLERRYNLTKKQWQAVGDKIKDEFQGFSTDKIREFRNGMEISLEAAIESQKECIELWETFYQTNL
B3: Vps35^yomCherry (wildtype) (protein, UniProt P34110 1-944)
chain: T1 sequence

Key:
Experiment in all cases: co-IP
[1] = target: T1, Vps35^yomCherry (wildtype) (yeast (strain BY4742))
[2] = target: T2, Vps35^QGRE-yomCherry (yeast (strain BY4742))
[3] = target: T3, Snx3^V5 (yeast (strain BY4742))

Row | Binder | binding [1] | binding [2] | binding [3]
1 | B1 | binds | no binding | –
2 | B2 | binds | binds | –
3 | B3 | – | – | binds
